These results are taken from the supplement of paper PMC7666118.

The chains behind the UniProt entries cited, without tags or fusion partners. Where a name states a change or a piece, a line headed by the entry shows the natural chain unless it says otherwise.
UniProt P49591: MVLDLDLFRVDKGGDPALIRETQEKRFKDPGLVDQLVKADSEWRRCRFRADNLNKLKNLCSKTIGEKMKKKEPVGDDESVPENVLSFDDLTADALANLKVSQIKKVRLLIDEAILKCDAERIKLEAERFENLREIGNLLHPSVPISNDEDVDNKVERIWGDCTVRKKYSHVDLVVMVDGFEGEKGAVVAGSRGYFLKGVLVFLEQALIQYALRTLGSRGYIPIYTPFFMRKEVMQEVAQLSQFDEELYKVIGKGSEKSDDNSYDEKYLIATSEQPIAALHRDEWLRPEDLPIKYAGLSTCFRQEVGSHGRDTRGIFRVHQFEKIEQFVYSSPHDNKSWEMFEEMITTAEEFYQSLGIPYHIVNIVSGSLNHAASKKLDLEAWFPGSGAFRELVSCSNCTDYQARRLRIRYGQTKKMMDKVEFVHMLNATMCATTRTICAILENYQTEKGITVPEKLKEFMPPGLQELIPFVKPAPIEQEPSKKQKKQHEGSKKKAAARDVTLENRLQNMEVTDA

This is one part of the list.

This test concerns the target SARS (UniProt P49591). Briefly: dose-dependent thermal stabilisation call (2D-TPP, DLPTP, 10% FDR) (binary (1 = stabilised)); higher = stabilised by the compound. The note with it: system: HL-60 intact cells; concentration range 0.04-10 µM. As to the method:
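2D thermal proteome profiling in intact HL-60 cells treated with BRD-3811 (0, 0.04, 0.29, 2, 10 uM) for 90 min at 37 C, then heated 3 min at one of 12 temperatures (42-63.9 C). Soluble protein was quantified by TMT10 MS. The value is the DLPTP call of the paper: dose-dependent thermal stabilisation over all temperatures at 10% FDR (F-test of a dose-response against a flat model); one experiment, one call per tested protein.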
In the case of `COc1ccc(Cn2ccc3cc(C)c(C(=O)NO)cc32)cc1`, the “dose-dependent thermal stabilisation call” value is inactive: 0.
